In the supplement of paper PMC10849652:
This is one part of the list.

Sequences of proteins named here, by UniProt entry; tags and fusion partners are left off. A change or cut given only in a name is not applied to a line headed by its entry.
UniProt Q9UHN6: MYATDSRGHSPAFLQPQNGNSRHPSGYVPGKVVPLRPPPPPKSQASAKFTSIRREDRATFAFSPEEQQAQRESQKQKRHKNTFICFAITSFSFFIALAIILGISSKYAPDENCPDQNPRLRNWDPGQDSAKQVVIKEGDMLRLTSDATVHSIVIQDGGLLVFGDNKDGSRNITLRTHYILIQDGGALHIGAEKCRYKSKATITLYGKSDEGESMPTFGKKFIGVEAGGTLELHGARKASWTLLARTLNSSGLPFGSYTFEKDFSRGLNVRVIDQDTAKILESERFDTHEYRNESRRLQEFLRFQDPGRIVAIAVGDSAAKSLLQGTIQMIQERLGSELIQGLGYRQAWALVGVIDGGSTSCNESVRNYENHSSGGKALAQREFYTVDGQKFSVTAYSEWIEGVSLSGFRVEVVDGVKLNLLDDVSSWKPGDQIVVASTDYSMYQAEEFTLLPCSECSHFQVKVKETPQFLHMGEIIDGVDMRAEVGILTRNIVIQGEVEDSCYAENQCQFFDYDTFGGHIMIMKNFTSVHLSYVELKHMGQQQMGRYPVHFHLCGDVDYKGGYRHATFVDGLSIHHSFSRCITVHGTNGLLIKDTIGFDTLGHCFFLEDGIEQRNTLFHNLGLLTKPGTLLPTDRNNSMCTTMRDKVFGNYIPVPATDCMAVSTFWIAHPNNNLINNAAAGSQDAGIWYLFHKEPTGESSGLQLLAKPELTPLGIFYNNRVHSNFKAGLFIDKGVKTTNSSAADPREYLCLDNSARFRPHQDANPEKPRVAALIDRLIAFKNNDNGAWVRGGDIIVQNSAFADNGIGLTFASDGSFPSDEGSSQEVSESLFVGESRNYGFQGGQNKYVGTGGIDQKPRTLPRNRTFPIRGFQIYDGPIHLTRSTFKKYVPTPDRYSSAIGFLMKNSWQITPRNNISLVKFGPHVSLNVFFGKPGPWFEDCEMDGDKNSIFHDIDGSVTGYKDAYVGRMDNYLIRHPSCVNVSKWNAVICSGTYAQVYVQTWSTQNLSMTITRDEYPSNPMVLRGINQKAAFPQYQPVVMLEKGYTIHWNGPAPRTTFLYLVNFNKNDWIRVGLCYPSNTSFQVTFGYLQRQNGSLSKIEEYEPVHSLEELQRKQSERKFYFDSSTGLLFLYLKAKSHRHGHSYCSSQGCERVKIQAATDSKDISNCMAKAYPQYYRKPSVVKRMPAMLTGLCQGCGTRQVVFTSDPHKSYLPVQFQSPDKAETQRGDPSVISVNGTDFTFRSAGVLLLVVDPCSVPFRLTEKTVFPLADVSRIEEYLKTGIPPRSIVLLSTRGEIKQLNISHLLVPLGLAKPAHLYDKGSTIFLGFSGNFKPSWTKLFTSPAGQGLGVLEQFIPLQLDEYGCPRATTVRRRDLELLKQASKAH
UniProt Q71F23: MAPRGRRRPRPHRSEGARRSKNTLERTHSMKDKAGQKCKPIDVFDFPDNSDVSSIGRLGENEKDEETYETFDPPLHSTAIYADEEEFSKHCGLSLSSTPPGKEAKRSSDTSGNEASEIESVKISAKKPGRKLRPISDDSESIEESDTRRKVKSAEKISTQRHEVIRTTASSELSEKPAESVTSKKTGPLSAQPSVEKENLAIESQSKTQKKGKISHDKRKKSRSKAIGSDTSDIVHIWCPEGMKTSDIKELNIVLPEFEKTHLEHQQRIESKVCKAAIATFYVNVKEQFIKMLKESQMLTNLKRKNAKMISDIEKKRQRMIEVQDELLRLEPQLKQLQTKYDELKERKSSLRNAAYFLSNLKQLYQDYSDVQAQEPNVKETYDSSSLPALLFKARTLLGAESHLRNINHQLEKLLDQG
UniProt Q99618: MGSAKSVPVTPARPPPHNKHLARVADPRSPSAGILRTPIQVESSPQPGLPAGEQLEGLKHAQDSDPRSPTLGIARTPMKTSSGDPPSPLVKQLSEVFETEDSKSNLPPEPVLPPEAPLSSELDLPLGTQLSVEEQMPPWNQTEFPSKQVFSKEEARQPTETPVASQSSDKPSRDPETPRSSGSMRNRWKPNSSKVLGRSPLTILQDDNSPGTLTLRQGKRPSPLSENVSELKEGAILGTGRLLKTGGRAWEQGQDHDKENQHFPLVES
UniProt Q9Y3E7, whole entry, looked up: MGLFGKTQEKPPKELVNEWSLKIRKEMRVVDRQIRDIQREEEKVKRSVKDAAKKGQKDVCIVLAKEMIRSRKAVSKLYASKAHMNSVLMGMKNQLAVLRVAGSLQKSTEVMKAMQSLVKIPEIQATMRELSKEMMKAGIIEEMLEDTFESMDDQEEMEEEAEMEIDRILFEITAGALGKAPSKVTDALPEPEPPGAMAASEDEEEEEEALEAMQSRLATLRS
UniProt O75956: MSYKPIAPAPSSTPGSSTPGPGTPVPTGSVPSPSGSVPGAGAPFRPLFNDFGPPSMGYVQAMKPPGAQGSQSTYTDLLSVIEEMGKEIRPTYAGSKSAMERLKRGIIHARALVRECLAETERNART
UniProt P23528, whole entry, looked up: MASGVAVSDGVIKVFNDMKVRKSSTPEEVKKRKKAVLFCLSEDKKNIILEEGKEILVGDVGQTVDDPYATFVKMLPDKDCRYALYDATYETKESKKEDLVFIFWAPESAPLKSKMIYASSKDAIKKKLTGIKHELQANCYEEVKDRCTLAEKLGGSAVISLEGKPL
UniProt Q9BV73: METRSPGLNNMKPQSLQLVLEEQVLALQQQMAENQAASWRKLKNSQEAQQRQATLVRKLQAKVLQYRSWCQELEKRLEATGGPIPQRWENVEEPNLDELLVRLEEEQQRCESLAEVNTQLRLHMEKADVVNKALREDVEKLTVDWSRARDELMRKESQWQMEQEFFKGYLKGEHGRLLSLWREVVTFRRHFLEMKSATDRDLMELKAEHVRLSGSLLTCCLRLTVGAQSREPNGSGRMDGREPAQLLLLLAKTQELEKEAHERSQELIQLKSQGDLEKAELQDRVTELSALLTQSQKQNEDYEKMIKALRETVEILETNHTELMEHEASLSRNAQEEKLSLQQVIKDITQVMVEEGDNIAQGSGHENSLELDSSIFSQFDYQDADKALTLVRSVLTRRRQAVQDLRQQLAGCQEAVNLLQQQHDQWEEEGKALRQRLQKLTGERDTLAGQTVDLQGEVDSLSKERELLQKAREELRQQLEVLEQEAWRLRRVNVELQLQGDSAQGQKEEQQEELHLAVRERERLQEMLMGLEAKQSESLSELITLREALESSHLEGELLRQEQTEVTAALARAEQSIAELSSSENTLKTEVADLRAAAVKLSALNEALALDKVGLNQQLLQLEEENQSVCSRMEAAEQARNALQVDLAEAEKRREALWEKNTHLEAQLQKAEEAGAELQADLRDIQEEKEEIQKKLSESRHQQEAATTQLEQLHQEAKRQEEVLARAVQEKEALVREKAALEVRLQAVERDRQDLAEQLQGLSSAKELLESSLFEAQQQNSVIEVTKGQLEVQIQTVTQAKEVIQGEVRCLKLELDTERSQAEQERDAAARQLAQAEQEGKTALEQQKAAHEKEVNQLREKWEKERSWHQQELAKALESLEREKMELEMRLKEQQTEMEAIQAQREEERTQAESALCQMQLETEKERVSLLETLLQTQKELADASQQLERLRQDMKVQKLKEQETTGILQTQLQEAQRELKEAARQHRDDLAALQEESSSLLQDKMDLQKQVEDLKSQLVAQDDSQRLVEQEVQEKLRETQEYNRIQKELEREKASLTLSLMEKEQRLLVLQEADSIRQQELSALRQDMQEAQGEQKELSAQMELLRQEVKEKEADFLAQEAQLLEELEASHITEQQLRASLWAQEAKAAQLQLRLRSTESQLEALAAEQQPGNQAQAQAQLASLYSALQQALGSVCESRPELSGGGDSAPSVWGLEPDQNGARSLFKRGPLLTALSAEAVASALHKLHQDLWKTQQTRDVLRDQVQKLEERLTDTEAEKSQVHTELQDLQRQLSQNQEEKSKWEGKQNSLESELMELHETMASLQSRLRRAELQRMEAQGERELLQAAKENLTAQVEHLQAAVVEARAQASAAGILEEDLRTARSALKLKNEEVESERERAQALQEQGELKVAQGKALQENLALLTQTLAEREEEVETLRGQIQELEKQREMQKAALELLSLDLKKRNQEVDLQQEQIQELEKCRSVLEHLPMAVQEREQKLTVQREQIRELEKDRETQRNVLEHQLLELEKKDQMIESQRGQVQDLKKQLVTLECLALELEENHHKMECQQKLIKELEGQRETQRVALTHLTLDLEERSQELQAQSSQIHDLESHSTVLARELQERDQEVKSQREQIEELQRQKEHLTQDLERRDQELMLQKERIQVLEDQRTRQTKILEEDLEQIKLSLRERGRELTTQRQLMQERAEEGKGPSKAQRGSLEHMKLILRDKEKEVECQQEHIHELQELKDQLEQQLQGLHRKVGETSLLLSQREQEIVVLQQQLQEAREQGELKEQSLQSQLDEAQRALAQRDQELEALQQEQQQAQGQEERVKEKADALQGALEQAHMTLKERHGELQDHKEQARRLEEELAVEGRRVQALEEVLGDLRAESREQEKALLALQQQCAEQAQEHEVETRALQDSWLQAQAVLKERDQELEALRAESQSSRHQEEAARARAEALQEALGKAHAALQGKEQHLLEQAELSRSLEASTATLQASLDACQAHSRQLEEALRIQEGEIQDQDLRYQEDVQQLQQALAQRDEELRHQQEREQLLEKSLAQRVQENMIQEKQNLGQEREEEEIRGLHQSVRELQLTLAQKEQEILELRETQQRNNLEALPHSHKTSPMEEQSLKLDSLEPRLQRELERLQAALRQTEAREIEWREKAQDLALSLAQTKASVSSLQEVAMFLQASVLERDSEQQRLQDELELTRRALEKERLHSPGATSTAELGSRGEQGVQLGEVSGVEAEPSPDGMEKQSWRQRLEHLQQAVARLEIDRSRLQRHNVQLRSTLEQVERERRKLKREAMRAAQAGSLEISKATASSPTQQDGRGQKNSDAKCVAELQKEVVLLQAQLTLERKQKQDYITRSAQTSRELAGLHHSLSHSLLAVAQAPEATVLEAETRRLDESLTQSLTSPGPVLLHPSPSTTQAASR
UniProt Q96G28: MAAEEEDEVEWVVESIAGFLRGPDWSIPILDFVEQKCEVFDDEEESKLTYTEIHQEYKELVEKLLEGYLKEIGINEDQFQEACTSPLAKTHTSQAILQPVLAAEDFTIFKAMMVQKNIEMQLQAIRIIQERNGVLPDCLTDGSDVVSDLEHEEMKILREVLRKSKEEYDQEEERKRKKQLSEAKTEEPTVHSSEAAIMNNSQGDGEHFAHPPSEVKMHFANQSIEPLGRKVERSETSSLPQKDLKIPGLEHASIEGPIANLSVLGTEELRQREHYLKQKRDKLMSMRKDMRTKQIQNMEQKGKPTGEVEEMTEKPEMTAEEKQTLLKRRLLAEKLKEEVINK
UniProt Q9P2B7: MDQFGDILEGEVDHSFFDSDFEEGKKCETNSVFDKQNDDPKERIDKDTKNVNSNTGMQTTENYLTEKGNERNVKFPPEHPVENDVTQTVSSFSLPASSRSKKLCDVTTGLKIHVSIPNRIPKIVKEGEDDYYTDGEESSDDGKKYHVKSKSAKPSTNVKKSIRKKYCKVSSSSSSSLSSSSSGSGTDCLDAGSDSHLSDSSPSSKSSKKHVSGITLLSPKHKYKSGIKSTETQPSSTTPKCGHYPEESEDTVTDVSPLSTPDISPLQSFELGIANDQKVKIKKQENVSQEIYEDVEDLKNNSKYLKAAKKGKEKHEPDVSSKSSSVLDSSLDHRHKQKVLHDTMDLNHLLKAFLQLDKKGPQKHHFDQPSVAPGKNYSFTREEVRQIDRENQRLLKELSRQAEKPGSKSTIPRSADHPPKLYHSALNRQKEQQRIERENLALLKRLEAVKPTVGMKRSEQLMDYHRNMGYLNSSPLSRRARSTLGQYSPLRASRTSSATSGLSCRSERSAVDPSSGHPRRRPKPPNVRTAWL
UniProt Q9BSY4: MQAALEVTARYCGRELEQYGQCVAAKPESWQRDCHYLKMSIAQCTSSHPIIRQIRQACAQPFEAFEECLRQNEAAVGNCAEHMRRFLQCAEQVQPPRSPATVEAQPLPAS
UniProt O75419: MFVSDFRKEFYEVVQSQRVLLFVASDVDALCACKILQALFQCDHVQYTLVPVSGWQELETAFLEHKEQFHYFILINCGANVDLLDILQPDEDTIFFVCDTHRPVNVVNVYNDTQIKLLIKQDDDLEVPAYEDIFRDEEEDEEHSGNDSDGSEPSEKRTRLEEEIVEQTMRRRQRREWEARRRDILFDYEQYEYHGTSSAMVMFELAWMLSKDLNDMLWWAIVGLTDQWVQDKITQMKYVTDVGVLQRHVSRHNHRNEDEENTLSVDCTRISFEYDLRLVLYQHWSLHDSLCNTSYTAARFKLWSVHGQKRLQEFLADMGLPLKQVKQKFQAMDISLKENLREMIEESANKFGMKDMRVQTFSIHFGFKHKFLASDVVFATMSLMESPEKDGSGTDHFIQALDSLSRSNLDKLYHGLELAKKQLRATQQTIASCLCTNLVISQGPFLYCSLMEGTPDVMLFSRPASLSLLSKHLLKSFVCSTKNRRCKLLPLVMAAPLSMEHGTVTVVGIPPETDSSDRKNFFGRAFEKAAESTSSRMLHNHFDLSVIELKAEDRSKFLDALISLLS

Key:
Assay in all cases: log2 fold change, soluble protein after heating vs DMSO (PISA); higher = thermal stabilisation; K562 cells, 10 uM, 30 min; active = over 0.2 and 3.5 SD of the protein, either way, in both replicates (recomputed)
[1] = compound: COC1=CC=C(C=C1)CN2C=CC3=C2C=C(C=C3)C(=O)NO
Summary of the method: (§1)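 K562 cells at 2×10^6 cells/mL were treated for 30 min with 10 μM compound, and aliquots were heated for 3 min over 48°C-58°C before pooling. Extraction used PBS with 0.5% NP-40 at 4°C, and soluble protein was the supernatant after 21,000xg for 90 min, measured by TMTpro 16plex LC-MS/MS with channel sums equalised. Thermal stability values, relative to control samples and from duplicates, are log2 fold changes.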

zotarolimus = compound: CO[C@H]1C[C@@H]2CC[C@@H](C)[C@@](O)(O2)C(=O)C(=O)N2CCCC[C@H]2C(=O)O[C@H]([C@H](C)C[C@@H]2CC[C@H](n3cnnn3)[C@H](OC)C2)CC(=O)[C@H](C)/C=C(\C)[C@@H](O)[C@@H](OC)C(=O)[C@H](C)C[C@H](C)/C=C/C=C/C=C/1C [zotarolimus]
Summary of the method: as §1

idasanutlin = compound: COc1cc(C(=O)O)ccc1NC(=O)[C@@H]1N[C@@H](CC(C)(C)C)[C@](C#N)(c2ccc(Cl)cc2F)[C@H]1c1cccc(Cl)c1F [idasanutlin]
Summary of the method: as §1

alisertib = compound: COc1cc(Nc2ncc3c(n2)-c2ccc(Cl)cc2C(c2c(F)cccc2OC)=NC3)ccc1C(=O)O [alisertib]
Summary of the method: as §1

[2] = compound: COc1cc2nc(-c3cc(F)ccc3O)nc(N[C@@H]3CNC[C@H]3C(C)(C)O)c2cc1OC
Summary of the method: as §1

gefitinib = compound: COc1cc2ncnc(Nc3ccc(F)c(Cl)c3)c2cc1OCCCN1CCOCC1 [gefitinib]
Summary of the method: as §1

[3] = compound: COc1cccc2cc(-c3nc([C@H]4CC[C@H](C(=O)O)CC4)n4ncnc(N)c34)[nH]c12
Summary of the method: as §1

lapatinib = compound: CS(=O)(=O)CCNCc1ccc(-c2ccc3ncnc(Nc4ccc(OCc5cccc(F)c5)c(Cl)c4)c3c2)o1 [lapatinib]
Summary of the method: as §1

pictilisib = compound: CS(=O)(=O)N1CCN(Cc2cc3nc(-c4cccc5[nH]ncc45)nc(N4CCOCC4)c3s2)CC1 [pictilisib]
Summary of the method: as §1

filanesib = compound: CON(C)C(=O)N1N=C(c2cc(F)ccc2F)S[C@@]1(CCCN)c1ccccc1 [filanesib]
Summary of the method: as §1

Measured: log2 fold change

CEMIP2 (UniProt Q9UHN6)
inactive: [1] -0.018 | zotarolimus 0.008 | idasanutlin 0.021 | alisertib 0.202 | [2] 0.121 | gefitinib 0.072 | [3] 0.135 | lapatinib 0.026 | pictilisib 0.097

CENPU (UniProt Q71F23)
inactive: [1] -0.049 | filanesib 0.45 | idasanutlin 0.457 | [2] 0.116 | lapatinib 0.044

CEP170B (UniProt Q9Y4F5)
inactive: [1] 0.009 | filanesib 0.188 | idasanutlin 0.164 | alisertib -0.119 | [3] 0.003 | pictilisib 0.171

CDCA3 (UniProt Q99618)
inactive: [1] 0.035 | filanesib 0.031 | zotarolimus -0.025 | idasanutlin 0.039 | alisertib -0.062 | [2] 0.029 | gefitinib 0.005 | [3] 0.028 | lapatinib -0.02 | pictilisib -0.04

CEP128 (UniProt Q6ZU80)
active: alisertib 0.677
inactive: [1] -0.269 | filanesib 0.031 | zotarolimus -0.101 | idasanutlin -0.103 | [2] 0.076 | [3] -0.381 | lapatinib -0.198

CHMP3 (UniProt Q9Y3E7)
inactive: [1] -0.038 | filanesib -0.056 | zotarolimus 0.019 | idasanutlin -0.024 | alisertib 0.006 | [2] 0.054 | gefitinib -0.009 | [3] 0.013 | lapatinib -0.093 | pictilisib 0.012

CDK2AP2 (UniProt O75956)
inactive: [1] 0.078 | zotarolimus -0.022 | idasanutlin -0.043 | alisertib -0.019 | gefitinib -0.009 | [3] -0.11

CEP135 (UniProt Q66GS9)
inactive: [1] 0.623 | filanesib 0.212 | zotarolimus 0.103 | idasanutlin -0.124 | pictilisib 0.043

CENPJ (UniProt Q9HC77)
inactive: [1] -0.317 | filanesib 0.163 | idasanutlin 0.176 | [2] 0.067 | lapatinib -0.137

CFL1 (UniProt P23528)
inactive: [1] -0.045 | filanesib -0.077 | zotarolimus 0.025 | idasanutlin -0.028 | alisertib -0.059 | [2] -0.024 | gefitinib -0.009 | [3] -0.041 | lapatinib 0.03 | pictilisib -0.002

CDK8 (UniProt P49336)
inactive: [1] 0.03 | filanesib 0.008 | zotarolimus -0.044 | idasanutlin -0.136 | alisertib -0.137 | [2] -0.105 | [3] -0.005 | lapatinib -0.047 | pictilisib 0.038

Random excerpt: two records from the list.
CDK8 (UniProt P49336)
inactive: [1] 0.03 | filanesib 0.008 | zotarolimus -0.044 | idasanutlin -0.136 | alisertib -0.137 | [2] -0.105 | [3] -0.005 | lapatinib -0.047 | pictilisib 0.038

CENPJ (UniProt Q9HC77)
inactive: [1] -0.317 | filanesib 0.163 | idasanutlin 0.176 | [2] 0.067 | lapatinib -0.137

(listing goes on)

CEP250 (UniProt Q9BV73)
inactive: [1] 0.131 | filanesib 0.138 | zotarolimus 0.132 | alisertib -0.009 | [2] 0.103 | gefitinib 0.016 | [3] -0.025 | lapatinib -0.131

CEBPB (UniProt P17676)
inactive: [1] -0.135 | zotarolimus -0.001 | idasanutlin -0.118 | alisertib -0.366 | [2] -0.007 | gefitinib -0.116 | [3] -0.057 | lapatinib 0.066 | pictilisib 0

CFAP36 isoform 2 (UniProt Q96G28)
inactive: [1] 0.12 | filanesib 0.055 | zotarolimus 0.162 | idasanutlin -0.02 | alisertib -0.049 | [2] 0.001 | [3] 0.019 | lapatinib 0.082 | pictilisib 0.241

CFAP97 (UniProt Q9P2B7)
inactive: [1] -0.082 | filanesib 0.231 | zotarolimus 0.043 | idasanutlin -0.044 | [2] -0.045 | lapatinib 0.11 | pictilisib -0.029

CHM (UniProt P24386)
inactive: [1] 0.024 | filanesib -0.015 | zotarolimus 0.008 | idasanutlin 0.356 | alisertib -0.01 | [2] 0.055 | [3] -0.004 | lapatinib -0.049 | pictilisib 0.075

CDYL (UniProt Q9Y232)
inactive: [1] 0.047 | filanesib 0.026 | zotarolimus 0 | idasanutlin 0.029 | alisertib -0.069 | [2] -0.008 | gefitinib 0.025 | [3] 0.001 | lapatinib -0.022 | pictilisib 0.104

CENPC (UniProt Q03188)
inactive: [1] -0.15 | zotarolimus 0.016 | idasanutlin 0.199 | [2] 0.058 | gefitinib -0.1 | lapatinib 0.103

CENPF (UniProt P49454)
inactive: [1] -0.084 | filanesib 0.179 | zotarolimus 0.01 | idasanutlin 0.13 | alisertib -0.11 | [2] -0.008 | gefitinib -0.003 | [3] -0.082 | lapatinib 0.086 | pictilisib 0.042

CDC42EP1 (UniProt Q00587)
inactive: [1] -0.139 | filanesib -0.07 | zotarolimus 0.014 | idasanutlin 0 | alisertib 0 | gefitinib 0.087 | [3] -0.057 | lapatinib -0.015 | pictilisib -0.143
active: [2] -0.492

CHCHD5 (UniProt Q9BSY4)
inactive: [1] -0.079 | filanesib -0.032 | zotarolimus -0.243 | alisertib -0.127 | [2] 0.019 | gefitinib 0.089 | [3] 0.061 | lapatinib 0.062

CFDP1 (UniProt Q9UEE9)
inactive: [1] -0.036 | filanesib -0.039 | zotarolimus -0.051 | idasanutlin 0.015 | alisertib -0.034 | [2] 0.044 | gefitinib 0.019 | [3] 0.062 | lapatinib 0.007 | pictilisib 0.017

CDC45 isoform 3 (UniProt O75419)
inactive: [1] 0.013 | filanesib 0 | zotarolimus 0.036 | idasanutlin 0.104 | [2] -0.154 | gefitinib -0.131 | lapatinib 0.129 | pictilisib -0.227

CDK17 isoform 2 (UniProt Q00537)
inactive: [1] -0.031 | filanesib -0.024 | zotarolimus -0.208 | idasanutlin 0.03 | alisertib 0.508 | [2] 0.051 | [3] 0.103 | lapatinib 0.049 | pictilisib 0.158

CERS2 (UniProt Q96G23)
active: pictilisib -0.262
inactive: [1] -0.045 | filanesib -0.117 | zotarolimus -0.062 | idasanutlin -0.047 | alisertib -0.129 | [2] -0.107 | gefitinib -0.095 | [3] -0.005 | lapatinib -0.03

CEP120 (UniProt Q8N960)
inactive: [1] 0.132 | filanesib 0.312 | zotarolimus -0.076 | idasanutlin -0.243 | alisertib -0.369 | [2] 0.264 | [3] 0.25 | lapatinib 0.011

CDC73 (UniProt Q6P1J9)
inactive: [1] 0.127 | filanesib 0.233 | zotarolimus 0.235 | idasanutlin 0.074 | alisertib 0.028 | [2] -0.023 | gefitinib 0.069 | [3] -0.137 | lapatinib 0.035 | pictilisib 0.339
